Measurements taken from the supplement of paper PMC10849652.
This is one part of the list.

Chains of the proteins cited; added tags and fusions are not shown. Lines headed by an entry give the natural chain unless they say otherwise; changes in a name come on top.
UniProt P48067: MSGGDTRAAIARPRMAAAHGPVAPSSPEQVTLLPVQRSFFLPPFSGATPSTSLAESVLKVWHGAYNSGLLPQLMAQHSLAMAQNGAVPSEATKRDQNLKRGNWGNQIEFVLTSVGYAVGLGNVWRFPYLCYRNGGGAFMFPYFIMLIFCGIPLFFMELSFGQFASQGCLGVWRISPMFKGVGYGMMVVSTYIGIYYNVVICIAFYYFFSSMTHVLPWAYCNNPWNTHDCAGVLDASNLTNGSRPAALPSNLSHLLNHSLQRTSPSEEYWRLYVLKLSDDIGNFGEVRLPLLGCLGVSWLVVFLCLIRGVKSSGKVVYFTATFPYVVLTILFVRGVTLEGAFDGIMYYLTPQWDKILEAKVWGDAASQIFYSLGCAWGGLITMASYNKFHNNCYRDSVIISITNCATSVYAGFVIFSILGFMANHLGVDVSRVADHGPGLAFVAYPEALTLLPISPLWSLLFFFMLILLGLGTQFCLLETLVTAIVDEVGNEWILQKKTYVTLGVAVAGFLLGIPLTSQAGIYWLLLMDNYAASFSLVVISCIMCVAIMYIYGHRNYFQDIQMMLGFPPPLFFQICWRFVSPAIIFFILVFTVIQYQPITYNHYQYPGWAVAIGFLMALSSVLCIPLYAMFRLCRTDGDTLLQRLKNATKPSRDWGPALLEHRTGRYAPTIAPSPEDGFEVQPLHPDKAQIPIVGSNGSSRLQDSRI
UniProt Q6NUK1: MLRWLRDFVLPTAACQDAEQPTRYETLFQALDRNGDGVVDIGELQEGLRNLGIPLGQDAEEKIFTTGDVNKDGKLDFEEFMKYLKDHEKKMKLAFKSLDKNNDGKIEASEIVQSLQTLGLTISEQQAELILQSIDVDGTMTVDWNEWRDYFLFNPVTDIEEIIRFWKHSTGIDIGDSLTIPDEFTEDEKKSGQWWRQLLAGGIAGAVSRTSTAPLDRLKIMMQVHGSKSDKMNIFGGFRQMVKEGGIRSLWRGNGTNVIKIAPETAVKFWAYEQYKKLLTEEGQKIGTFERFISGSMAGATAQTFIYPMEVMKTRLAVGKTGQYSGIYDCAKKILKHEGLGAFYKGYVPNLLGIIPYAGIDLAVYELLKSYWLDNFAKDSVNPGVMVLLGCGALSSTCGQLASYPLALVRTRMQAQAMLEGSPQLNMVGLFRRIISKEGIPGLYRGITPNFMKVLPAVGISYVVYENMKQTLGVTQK
UniProt Q8N697: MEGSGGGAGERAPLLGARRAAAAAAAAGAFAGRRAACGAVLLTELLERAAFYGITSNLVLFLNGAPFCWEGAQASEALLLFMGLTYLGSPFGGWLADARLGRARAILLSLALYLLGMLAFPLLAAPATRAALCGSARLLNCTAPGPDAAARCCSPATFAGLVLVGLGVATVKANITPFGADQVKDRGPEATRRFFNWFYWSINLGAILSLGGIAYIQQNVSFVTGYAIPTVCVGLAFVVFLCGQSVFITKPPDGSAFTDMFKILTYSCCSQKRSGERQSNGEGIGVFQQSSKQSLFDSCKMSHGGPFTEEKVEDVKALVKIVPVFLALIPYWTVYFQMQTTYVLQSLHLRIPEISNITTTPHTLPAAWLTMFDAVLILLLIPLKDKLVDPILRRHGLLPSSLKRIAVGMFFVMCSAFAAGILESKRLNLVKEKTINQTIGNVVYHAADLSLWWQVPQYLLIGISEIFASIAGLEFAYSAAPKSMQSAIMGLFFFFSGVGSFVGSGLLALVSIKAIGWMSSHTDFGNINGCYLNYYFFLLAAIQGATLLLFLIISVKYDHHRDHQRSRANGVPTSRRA
UniProt Q02978: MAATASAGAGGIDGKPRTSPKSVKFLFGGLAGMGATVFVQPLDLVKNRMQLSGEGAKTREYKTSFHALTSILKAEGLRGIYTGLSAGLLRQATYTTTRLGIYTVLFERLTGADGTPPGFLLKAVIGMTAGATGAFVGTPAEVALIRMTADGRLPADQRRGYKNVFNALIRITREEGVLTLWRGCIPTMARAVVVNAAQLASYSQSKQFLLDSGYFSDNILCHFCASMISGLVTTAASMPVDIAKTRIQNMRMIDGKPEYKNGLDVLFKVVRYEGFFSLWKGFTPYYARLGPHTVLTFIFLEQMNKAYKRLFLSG
UniProt P08195: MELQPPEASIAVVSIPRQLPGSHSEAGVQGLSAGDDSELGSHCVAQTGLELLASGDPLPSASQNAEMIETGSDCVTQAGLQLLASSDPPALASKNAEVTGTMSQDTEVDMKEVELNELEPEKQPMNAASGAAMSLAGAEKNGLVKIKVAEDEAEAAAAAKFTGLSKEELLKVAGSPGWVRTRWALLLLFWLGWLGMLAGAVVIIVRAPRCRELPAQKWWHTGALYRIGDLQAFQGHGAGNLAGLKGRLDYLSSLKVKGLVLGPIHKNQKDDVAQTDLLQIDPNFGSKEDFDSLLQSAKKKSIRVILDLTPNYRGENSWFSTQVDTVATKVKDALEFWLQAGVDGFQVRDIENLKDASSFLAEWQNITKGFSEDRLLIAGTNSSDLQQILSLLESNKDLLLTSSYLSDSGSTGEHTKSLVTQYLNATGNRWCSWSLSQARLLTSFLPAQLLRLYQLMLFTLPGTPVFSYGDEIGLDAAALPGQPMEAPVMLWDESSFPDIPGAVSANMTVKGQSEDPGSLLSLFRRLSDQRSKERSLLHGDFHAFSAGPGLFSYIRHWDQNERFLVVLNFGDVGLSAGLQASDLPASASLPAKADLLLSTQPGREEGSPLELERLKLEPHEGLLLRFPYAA
UniProt Q5BKX6: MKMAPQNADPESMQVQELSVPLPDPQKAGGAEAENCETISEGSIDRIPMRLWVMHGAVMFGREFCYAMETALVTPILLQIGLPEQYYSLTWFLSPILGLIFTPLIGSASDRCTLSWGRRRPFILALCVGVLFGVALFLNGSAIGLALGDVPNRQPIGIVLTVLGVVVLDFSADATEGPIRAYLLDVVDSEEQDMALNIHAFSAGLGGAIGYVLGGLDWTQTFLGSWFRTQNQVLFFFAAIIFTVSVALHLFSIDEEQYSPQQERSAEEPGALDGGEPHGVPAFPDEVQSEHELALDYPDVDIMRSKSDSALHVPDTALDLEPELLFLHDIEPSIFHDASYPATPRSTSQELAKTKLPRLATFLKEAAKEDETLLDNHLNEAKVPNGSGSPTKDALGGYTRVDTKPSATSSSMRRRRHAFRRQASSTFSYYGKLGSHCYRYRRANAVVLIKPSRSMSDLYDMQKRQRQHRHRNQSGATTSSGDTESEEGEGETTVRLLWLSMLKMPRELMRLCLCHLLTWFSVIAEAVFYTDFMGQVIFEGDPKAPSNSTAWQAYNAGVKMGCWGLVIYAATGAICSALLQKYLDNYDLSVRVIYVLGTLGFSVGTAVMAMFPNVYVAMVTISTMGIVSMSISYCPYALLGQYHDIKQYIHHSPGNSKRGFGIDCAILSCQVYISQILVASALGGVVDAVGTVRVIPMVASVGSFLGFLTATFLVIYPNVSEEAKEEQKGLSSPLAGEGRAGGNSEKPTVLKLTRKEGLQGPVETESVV
UniProt P12235: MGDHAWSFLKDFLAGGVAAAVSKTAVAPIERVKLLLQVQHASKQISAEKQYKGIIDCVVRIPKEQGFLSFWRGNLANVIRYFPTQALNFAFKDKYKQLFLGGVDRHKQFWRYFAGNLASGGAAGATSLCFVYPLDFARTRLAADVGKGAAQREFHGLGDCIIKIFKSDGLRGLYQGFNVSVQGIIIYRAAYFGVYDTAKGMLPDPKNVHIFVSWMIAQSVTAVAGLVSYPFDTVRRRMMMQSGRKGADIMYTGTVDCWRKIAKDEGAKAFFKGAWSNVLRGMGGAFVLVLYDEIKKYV
UniProt Q8N1S5: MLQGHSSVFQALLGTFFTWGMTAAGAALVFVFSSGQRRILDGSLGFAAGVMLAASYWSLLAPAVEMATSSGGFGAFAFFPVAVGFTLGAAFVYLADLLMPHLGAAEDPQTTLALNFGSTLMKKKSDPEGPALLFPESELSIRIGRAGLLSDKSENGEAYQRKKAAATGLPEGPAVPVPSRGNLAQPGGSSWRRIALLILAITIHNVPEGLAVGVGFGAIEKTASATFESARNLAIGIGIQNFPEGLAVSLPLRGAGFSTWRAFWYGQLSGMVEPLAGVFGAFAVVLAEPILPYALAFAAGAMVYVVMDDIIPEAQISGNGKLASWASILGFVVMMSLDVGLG
UniProt Q9HC21: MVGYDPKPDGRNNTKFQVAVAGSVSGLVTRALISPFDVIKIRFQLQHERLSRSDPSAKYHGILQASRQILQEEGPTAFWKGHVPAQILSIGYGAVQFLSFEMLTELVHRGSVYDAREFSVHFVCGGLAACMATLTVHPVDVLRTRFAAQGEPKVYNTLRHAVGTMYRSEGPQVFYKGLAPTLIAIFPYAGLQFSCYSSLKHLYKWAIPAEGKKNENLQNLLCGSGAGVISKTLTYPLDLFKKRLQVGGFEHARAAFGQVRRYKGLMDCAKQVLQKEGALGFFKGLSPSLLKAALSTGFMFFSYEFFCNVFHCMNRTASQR
UniProt Q8NEW0: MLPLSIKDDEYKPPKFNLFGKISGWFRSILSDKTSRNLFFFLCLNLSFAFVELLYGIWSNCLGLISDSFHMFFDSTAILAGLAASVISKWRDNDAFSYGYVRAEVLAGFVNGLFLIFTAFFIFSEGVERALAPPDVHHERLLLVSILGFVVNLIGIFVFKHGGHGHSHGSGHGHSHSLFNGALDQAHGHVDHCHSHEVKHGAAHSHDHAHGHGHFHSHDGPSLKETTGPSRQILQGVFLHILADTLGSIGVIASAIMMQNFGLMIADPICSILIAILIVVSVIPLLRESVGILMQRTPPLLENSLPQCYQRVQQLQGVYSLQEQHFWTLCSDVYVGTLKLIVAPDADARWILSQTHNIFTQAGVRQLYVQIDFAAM
UniProt Q96H78: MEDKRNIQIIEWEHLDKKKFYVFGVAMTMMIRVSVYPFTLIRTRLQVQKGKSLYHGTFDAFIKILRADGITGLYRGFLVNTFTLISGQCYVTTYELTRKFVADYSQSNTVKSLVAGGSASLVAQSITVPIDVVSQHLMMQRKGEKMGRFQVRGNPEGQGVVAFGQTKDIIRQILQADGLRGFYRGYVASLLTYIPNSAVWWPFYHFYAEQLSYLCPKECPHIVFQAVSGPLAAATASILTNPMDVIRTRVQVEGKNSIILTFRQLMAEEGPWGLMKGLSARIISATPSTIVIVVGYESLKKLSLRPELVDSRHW
UniProt Q9BWU0: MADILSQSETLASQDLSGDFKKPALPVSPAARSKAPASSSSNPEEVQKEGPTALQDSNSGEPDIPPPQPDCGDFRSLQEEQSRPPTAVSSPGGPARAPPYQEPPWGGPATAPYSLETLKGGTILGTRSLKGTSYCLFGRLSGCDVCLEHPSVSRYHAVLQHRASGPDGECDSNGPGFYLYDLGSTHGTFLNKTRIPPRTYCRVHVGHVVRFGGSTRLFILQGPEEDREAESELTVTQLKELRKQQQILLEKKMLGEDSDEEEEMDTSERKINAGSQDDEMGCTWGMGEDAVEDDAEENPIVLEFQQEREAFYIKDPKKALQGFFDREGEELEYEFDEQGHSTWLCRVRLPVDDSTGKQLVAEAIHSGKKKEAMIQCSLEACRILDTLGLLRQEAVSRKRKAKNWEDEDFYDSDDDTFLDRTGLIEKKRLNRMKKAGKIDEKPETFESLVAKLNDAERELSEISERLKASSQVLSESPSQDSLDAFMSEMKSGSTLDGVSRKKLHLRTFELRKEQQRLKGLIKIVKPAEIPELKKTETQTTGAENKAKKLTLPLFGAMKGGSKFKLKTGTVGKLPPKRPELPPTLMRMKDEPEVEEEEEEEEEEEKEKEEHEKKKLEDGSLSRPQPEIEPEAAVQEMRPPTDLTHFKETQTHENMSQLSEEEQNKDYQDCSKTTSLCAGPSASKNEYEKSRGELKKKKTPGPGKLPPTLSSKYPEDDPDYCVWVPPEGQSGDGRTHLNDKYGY
UniProt P49281: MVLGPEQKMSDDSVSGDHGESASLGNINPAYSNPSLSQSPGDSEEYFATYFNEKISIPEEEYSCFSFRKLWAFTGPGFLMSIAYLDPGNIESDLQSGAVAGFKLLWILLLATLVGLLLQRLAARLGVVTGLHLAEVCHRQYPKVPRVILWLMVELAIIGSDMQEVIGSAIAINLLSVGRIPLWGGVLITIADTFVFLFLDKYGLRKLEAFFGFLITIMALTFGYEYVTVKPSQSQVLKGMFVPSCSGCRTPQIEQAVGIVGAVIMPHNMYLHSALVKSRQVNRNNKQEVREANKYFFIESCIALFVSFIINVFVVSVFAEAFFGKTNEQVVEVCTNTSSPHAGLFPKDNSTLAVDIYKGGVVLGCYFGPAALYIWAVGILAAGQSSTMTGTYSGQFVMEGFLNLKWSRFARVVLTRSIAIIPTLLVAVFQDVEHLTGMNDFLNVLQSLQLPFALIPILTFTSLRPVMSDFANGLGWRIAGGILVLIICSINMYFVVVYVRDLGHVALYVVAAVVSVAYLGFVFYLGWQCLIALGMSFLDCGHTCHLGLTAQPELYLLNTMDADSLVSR

Columns and labels:
Assay in all cases: log2 fold change, soluble protein after heating vs DMSO (PISA); higher = thermal stabilisation; K562 cells, 10 uM, 30 min; active = over 0.2 and 3.5 SD of the protein, either way, in both replicates (recomputed)
[1] = compound: C1=CC=C(C=C1)[C@H](COC2=CC3=C(C=C2)NC(=O)N3)NC(=O)C4=CC=CN(C4=O)CC5=CC(=C(C=C5)F)F
Summary of the method: (§1)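 Aliquots of K562 cells (2×10^6 cells/mL) treated with 10 μM compound for 30 min were heated for 3 min over 48°C-58°C. After pooling and extraction in PBS with 0.5% NP-40 at 4°C, soluble protein from a 21,000xg, 90 min spin was quantified by TMTpro 16plex LC-MS/MS with channel sums equalised. Thermal stability is expressed against control samples, from duplicates, as a log2 fold change.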

[2] = compound: CC1=C(SC2=C1C(=N[C@H](C3=NN=C(N32)C)CC(=O)N)C4=CC=C(C=C4)Cl)C
Summary of the method: as §1

[3] = compound: CC1=C2C(=CC=C1)N=C(N(C2=O)C3=CC=CC=C3C)CN4C=NC5=C(N=CN=C54)N
Summary of the method: as §1

[4] = compound: Cc1sc2c(c1C)C(c1ccc(Cl)cc1)=N[C@@H](CC(=O)OC(C)(C)C)c1nnc(C)n1-2
Summary of the method: as §1

[5] = compound: c1ccc([C@@H]2C[C@H]2NC2CCNCC2)cc1
Summary of the method: as §1

Measured: log2 fold change

SLC7A11 (UniProt Q9UPY5)
inactive: [1] 0.011 | [2] 0.053 | [3] 0.127 | [4] -0.022 | [5] 0

SLC35A2 isoform 4 (UniProt P78381)
inactive: [1] 0.008 | [2] 0 | [3] 0.151 | [4] -0.087 | [5] 0.076

SLC25A28 (UniProt Q96A46)
inactive: [1] -0.157

SLAIN2 (UniProt Q9P270)
inactive: [1] -0.016 | [2] 0.003 | [3] -0.013 | [4] 0.014 | [5] 0.04

SLC25A40 (UniProt Q8TBP6)
inactive: [1] 0.035 | [2] 0.033 | [3] -0.025 | [4] -0.061 | [5] 0.002

SLC30A10 (UniProt Q6XR72)
inactive: [1] 0.066 | [2] -0.005 | [3] 0.113 | [4] -0.003 | [5] 0.059

SLC6A9 (UniProt P48067)
inactive: [1] 0.045 | [2] 0.021 | [3] -0.032 | [4] -0.022 | [5] 0.099

SLC25A21 (UniProt Q9BQT8)
inactive: [1] 0.01 | [2] -0.011 | [3] 0 | [4] 0.01 | [5] 0.068

SLC31A1 (UniProt O15431)
inactive: [1] 0.019 | [2] 0.088 | [3] 0.056 | [4] -0.059 | [5] 0.004

SLC35A1 (UniProt P78382)
inactive: [1] -0.046 | [2] -0.108 | [3] 0.05 | [4] -0.07 | [5] 0.013

SLC25A24 (UniProt Q6NUK1)
inactive: [1] 0.022 | [2] -0.004 | [3] 0.025 | [4] -0.016 | [5] 0.033

SLC1A5 (UniProt Q15758)
inactive: [1] -0.003 | [2] 0.035 | [3] -0.026 | [4] 0.013 | [5] 0.022

SLC15A4 (UniProt Q8N697)
inactive: [1] -0.013 | [2] 0.027 | [3] 0.01 | [4] -0.087 | [5] -0.066

SLC30A6 isoform 2 (UniProt Q6NXT4)
inactive: [1] -0.038 | [2] -0.054 | [3] 0.121 | [4] 0.023 | [5] -0.021

SLC30A5 (UniProt Q8TAD4)
inactive: [1] -0.076 | [2] 0.129 | [3] 0.096 | [4] -0.055 | [5] -0.02

SLC25A10 isoform 2 (UniProt Q9UBX3)
inactive: [1] -0.003 | [2] -0.012 | [3] -0.03 | [4] -0.018 | [5] 0.006

SLC25A20 (UniProt O43772)
inactive: [1] 0.012 | [2] 0.034 | [3] 0.042 | [4] -0.006 | [5] 0.01

SLC25A13 isoform 2 (UniProt Q9UJS0)
inactive: [1] 0.024 | [2] 0.028 | [3] -0.001 | [4] 0.007 | [5] 0.005

SLC25A11 (UniProt Q02978)
inactive: [1] 0.014 | [2] 0.018 | [3] 0.01 | [4] -0.031 | [5] 0.045

SLC38A10 (UniProt Q9HBR0)
inactive: [1] 0.09 | [2] 0.039 | [3] 0.033 | [4] -0.021 | [5] 0.02

SLC27A6 (UniProt Q9Y2P4)
inactive: [1] -0.04 | [2] 0.294 | [3] 0.171 | [4] 0.192 | [5] 0.176

SLC5A6 (UniProt Q9Y289)
inactive: [1] 0.022 | [2] 0.096 | [3] -0.03 | [4] 0.025 | [5] -0.029

SLC38A7 (UniProt Q9NVC3)
inactive: [1] 0.021 | [2] -0.031 | [3] -0.004 | [4] -0.035 | [5] 0.117

SLC3A2 isoform 3 (UniProt P08195)
inactive: [1] 0.001 | [2] 0.041 | [3] 0.003 | [4] -0.025 | [5] -0.009

SLC35B1 isoform 2 (UniProt P78383)
inactive: [1] -0.166 | [2] -0.233 | [3] 0.146 | [4] -0.215 | [5] 0.027

SLC38A5 (UniProt Q8WUX1)
inactive: [1] -0.026 | [2] 0.043 | [3] 0.019 | [4] 0.018 | [5] 0.062

SLC30A9 (UniProt Q6PML9)
inactive: [1] -0.034 | [2] -0.04 | [3] 0.141 | [4] -0.027 | [5] -0.023

Fetched one by one from the entries so far (2):
SLC35B1 isoform 2 (UniProt P78383)
inactive: [1] -0.166 | [2] -0.233 | [3] 0.146 | [4] -0.215 | [5] 0.027

SLC35A1 (UniProt P78382)
inactive: [1] -0.046 | [2] -0.108 | [3] 0.05 | [4] -0.07 | [5] 0.013

Further entries.

SLC45A4 isoform 3 (UniProt Q5BKX6)
inactive: [1] 0.012 | [2] -0.044 | [3] 0.196 | [4] 0.091 | [5] 0.183

SLC25A42 (UniProt Q86VD7)
inactive: [1] 0.073 | [2] 0.051 | [3] -0.019 | [4] -0.005 | [5] 0.003

SLC43A1 (UniProt O75387)
inactive: [1] 0.002 | [2] 0.07 | [3] 0.069 | [4] -0.022 | [5] -0.006

SLC12A4 (UniProt Q9UP95)
inactive: [1] 0 | [2] 0.04 | [3] -0.065 | [4] 0.002 | [5] 0.007

SLC25A4 (UniProt P12235)
inactive: [1] -0.001 | [2] -0.034 | [3] 0.062 | [4] -0.049 | [5] 0.05

SLC39A11 (UniProt Q8N1S5)
inactive: [1] 0.053 | [2] 0.072 | [3] 0.078 | [4] -0.323 | [5] -0.003

SLC25A14 isoform 3 (UniProt O95258)
inactive: [1] -0.02 | [2] -0.099 | [3] -0.05 | [4] 0.001 | [5] -0.104

SLC25A25 isoform 3 (UniProt Q6KCM7)
inactive: [1] 0.068 | [2] -0.019 | [3] 0.029 | [4] -0.023 | [5] 0.021

SLC18B1 (UniProt Q6NT16)
inactive: [1] 0.015 | [2] 0.028 | [3] 0.061 | [4] 0.009 | [5] -0.039

SLC26A6 (UniProt Q9BXS9)
inactive: [1] -0.023 | [2] 0.047 | [3] -0.057 | [4] 0.051 | [5] 0.033

SLC25A19 (UniProt Q9HC21)
inactive: [1] 0.026 | [2] -0.011 | [3] 0.011 | [4] -0.027 | [5] 0.031

SLC12A5 (UniProt Q9H2X9)
inactive: [1] 0.102 | [2] 0.099 | [3] 0.066 | [4] -0.064 | [5] 0.055

SLC22A18 (UniProt Q96BI1)
inactive: [1] 0.006 | [2] 0.027 | [3] 0.106 | [4] -0.09 | [5] -0.017

SLC25A36 (UniProt Q96CQ1)
inactive: [1] 0.027 | [2] -0.041 | [3] -0.066 | [4] 0.051 | [5] -0.008

SLC30A7 (UniProt Q8NEW0)
inactive: [1] -0.033 | [2] 0.052 | [3] -0.049 | [4] 0.039 | [5] -0.011

SLC25A32 (UniProt Q9H2D1)
inactive: [1] 0.049 | [2] 0.079 | [3] 0.016 | [4] -0.053 | [5] 0.059

SLC39A14 (UniProt Q15043)
inactive: [1] 0.024 | [2] -0.012 | [3] 0.012 | [4] 0.054 | [5] 0.019

SLC2A3 (UniProt P11169)
inactive: [1] 0.007 | [2] 0.04 | [3] 0.002 | [4] -0.002 | [5] 0.049

SLC25A44 (UniProt Q96H78)
inactive: [1] -0.004 | [2] 0.055 | [3] 0.003 | [4] -0.041 | [5] -0.013

SLC4A1AP (UniProt Q9BWU0)
inactive: [1] 0.019 | [2] 0.049 | [3] 0 | [4] 0.012 | [5] 0.015

SLC39A6 (UniProt Q13433)
inactive: [1] -0.029 | [2] 0.061 | [3] 0.101 | [4] 0.059 | [5] 0.064

SLC11A2 isoform 3 (UniProt P49281)
inactive: [1] 0.017 | [2] 0.039 | [3] -0.028 | [4] -0.004 | [5] 0.024

SLC35B3 (UniProt Q9H1N7)
inactive: [1] 0.03 | [2] 0.208 | [3] 0.051 | [4] -0.071 | [5] -0.023

SLC25A37 (UniProt Q9NYZ2)
inactive: [1] 0.079 | [2] -0.036 | [3] 0.106 | [4] 0.039 | [5] 0.026

SLC39A8 (UniProt Q9C0K1)
inactive: [1] -0.032 | [2] -0.111 | [3] -0.043 | [4] 0.051 | [5] -0.017
